Literature values in US20050159439A1, “Management of postoperative pain” (priority 2001, published 2005).

Tested on: subjects operated on for lumbar disc herniation
Conditions: free morphine in the epidural space

## CN1CC[C@]23c4c5ccc(O)c4O[C@H]2[C@@H](O)C=C[C@H]3[C@H]1C5 [morphine]
  Time remaining effective as an analgesic: 6 to 24 h
